PubChem BioAssay AID1508588 | Peter MacCallum Cancer Centre – 2020

Aim: 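Which gene losses make BRAF-mutant melanoma cells more responsive to vemurafenib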 (primary screen)
System: human WM266.4 melanoma cells (BRAF V600 mutant)
Knock-down reagent: siRNA pool against human genes, 40 nM
Time to read-out: 96 h from transfection to read-out
Conditions: vemurafenib 300 nM (about IC25), added 48 h after transfection, for 48 h; comparison arm got DMSO vehicle only
Measurement: 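Cell gain (DAPI nuclei at end minus before drug, mean of two replicates) and medium lactate by absorbance per cell, both as ratio to non-targeting siRNA, also grouped into fold-change classes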
Direction: cell gain with vemurafenib: higher = more cell gain than with non-targeting siRNA; lactate per cell with vemurafenib: higher = more lactate made per cell
Hit rule: 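Enhancement is called by pairing each knock-down's vehicle-arm and drug-arm fold-change classes for viability or glycolysis; which class combinations qualify is not given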
Meaning of the calls: active = enhances vemurafenib effect; inactive = no enhancement seen
Here is one part, drawn at random, of about 18,000 reagents tested. 790 of them (4.4%) count as active. 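Calls rest on a combination of fold-change classes in drug and vehicle arms, not all shown here.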 Entries without a mark were called inactive.

With knock-down of SUPT5H [SID152154878] the results were cell gain with vemurafenib 0.13 (active); lactate per cell with vemurafenib 0.55. With knock-down of PRDM1 [SID135621747], the screen gave cell gain with vemurafenib 0.44; lactate per cell with vemurafenib 0.82. After knock-down of STK16 [SID152154415], the record shows cell gain with vemurafenib 0.66; lactate per cell with vemurafenib 1.17. After knock-down of SLC6A16 [SID152155513], the record shows cell gain with vemurafenib 0.67; lactate per cell with vemurafenib 0.68. After knock-down of LAMC3 [SID152149323], the screen gave cell gain with vemurafenib 0.7; lactate per cell with vemurafenib 1.27. Silencing of SNIP1 [SID134320469] came out at: cell gain with vemurafenib 0.38; lactate per cell with vemurafenib 1.46.

Against SLC2A14 [SID134312560] the deposit lists cell gain with vemurafenib 0.74; lactate per cell with vemurafenib 0.92. For RAB7A [SID134314958] the deposit lists cell gain with vemurafenib 0.47; lactate per cell with vemurafenib 1.06. With knock-down of ATP13A1 [SID152148979] the results were cell gain with vemurafenib 0.75; lactate per cell with vemurafenib 0.72. For TLL1 [SID134311468], the entry reads cell gain with vemurafenib 0.39; lactate per cell with vemurafenib 1.04. Knock-down of C8G [SID152155789] came out at: cell gain with vemurafenib 0.86; lactate per cell with vemurafenib 0.74. Depletion of UNC79 [SID152151880] gave: cell gain with vemurafenib 0.21; lactate per cell with vemurafenib 1.72.

After knock-down of CLDN4 [SID134317830], the screen gave cell gain with vemurafenib 1.16; lactate per cell with vemurafenib 0.6. Knock-down of C19orf53 [SID152154098] gave: cell gain with vemurafenib 0.89; lactate per cell with vemurafenib 0.9. For PDPK1 [SID135620604], the entry reads cell gain with vemurafenib 0.17 (active); lactate per cell with vemurafenib 0.29. Against C11orf68 [SID134322431], the entry reads cell gain with vemurafenib 0.64; lactate per cell with vemurafenib 0.92. DNAAF1 [SID152153077] scored cell gain with vemurafenib 0.6; lactate per cell with vemurafenib 1.13.

6 entries from above, set out differently.
LAMC3 [SID152149323]
- cell gain with vemurafenib: 0.7
- lactate per cell with vemurafenib: 1.27

SNIP1 [SID134320469]
- cell gain with vemurafenib: 0.38
- lactate per cell with vemurafenib: 1.46

SLC2A14 [SID134312560]
- cell gain with vemurafenib: 0.74
- lactate per cell with vemurafenib: 0.92

RAB7A [SID134314958]
- cell gain with vemurafenib: 0.47
- lactate per cell with vemurafenib: 1.06

ATP13A1 [SID152148979]
- cell gain with vemurafenib: 0.75
- lactate per cell with vemurafenib: 0.72

TLL1 [SID134311468]
- cell gain with vemurafenib: 0.39
- lactate per cell with vemurafenib: 1.04

The results go on.
Depletion of HLX [SID135623289] resulted in: cell gain with vemurafenib 0.15; lactate per cell with vemurafenib 1.89. IFNA13 [SID134318434] gave cell gain with vemurafenib 0.5; lactate per cell with vemurafenib 1.81. For OR5M3 [SID152151163] the deposit lists cell gain with vemurafenib 0.56; lactate per cell with vemurafenib 1.8. SHMT2 [SID152150066] gave cell gain with vemurafenib 1.13; lactate per cell with vemurafenib 1.02. After knock-down of NR2F6 [SID134309874], the record shows cell gain with vemurafenib 0.6; lactate per cell with vemurafenib 1.48. FASTKD4 [SID134315057] showed cell gain with vemurafenib 0.49; lactate per cell with vemurafenib 1.16.

Against ZBTB41 [SID152148749] the deposit lists cell gain with vemurafenib 1.03; lactate per cell with vemurafenib 0.74. Knock-down of C2CD4B [SID152150102] came out at: cell gain with vemurafenib 0.44; lactate per cell with vemurafenib 0.89. NKX2-3 [SID152152495] gave cell gain with vemurafenib 0.31; lactate per cell with vemurafenib 2.25. HOOK1 [SID152154432] scored cell gain with vemurafenib 0.51; lactate per cell with vemurafenib 0.72. After knock-down of BTBD10 [SID152154829] the results were cell gain with vemurafenib 0.3 (active); lactate per cell with vemurafenib 0.35. Depletion of RHPN2 [SID134320774] resulted in: cell gain with vemurafenib 0.83; lactate per cell with vemurafenib 0.96.

For CTAG1A [SID134320936] the deposit lists cell gain with vemurafenib 0.54; lactate per cell with vemurafenib 1.98. BCL7A [SID152155496] showed cell gain with vemurafenib 0.83; lactate per cell with vemurafenib 0.94. Against TVP23A [SID135625680], the entry reads cell gain with vemurafenib 0.4; lactate per cell with vemurafenib 1.49. GMPR [SID152155529] gave cell gain with vemurafenib 0.71; lactate per cell with vemurafenib 1.35. RECQL [SID134317815] showed cell gain with vemurafenib 0.57; lactate per cell with vemurafenib 1.18. For ETNK2 [SID56478982], the values are cell gain with vemurafenib -0.13 (active); lactate per cell with vemurafenib -0.37.

Against IGSF10 [SID134321904], the entry reads cell gain with vemurafenib 0.2; lactate per cell with vemurafenib 1.44. TOX4 [SID135624154] showed cell gain with vemurafenib 0.25; lactate per cell with vemurafenib 2.27. CDKL3 [SID56478871] scored cell gain with vemurafenib 0.94; lactate per cell with vemurafenib 0.64. With knock-down of MSX1 [SID152147880] the results were cell gain with vemurafenib 0.84; lactate per cell with vemurafenib 0.58. Depletion of CLEC18C [SID135623483] gave: cell gain with vemurafenib 0.93; lactate per cell with vemurafenib 0.68.
